Data from PMC10111864.
Results are given in words; binding and its absence hold for the method and conditions named. In cells and extracts the contact can be indirect. A result given as binding can be weak or reduced; the word gives no strength. Sequences can lack the tags named with a protein.

Sequences of proteins named here, by UniProt entry; tags and fusion partners are left off. A change or cut given only in a name is not applied to a line headed by its entry.
UniProt P13020: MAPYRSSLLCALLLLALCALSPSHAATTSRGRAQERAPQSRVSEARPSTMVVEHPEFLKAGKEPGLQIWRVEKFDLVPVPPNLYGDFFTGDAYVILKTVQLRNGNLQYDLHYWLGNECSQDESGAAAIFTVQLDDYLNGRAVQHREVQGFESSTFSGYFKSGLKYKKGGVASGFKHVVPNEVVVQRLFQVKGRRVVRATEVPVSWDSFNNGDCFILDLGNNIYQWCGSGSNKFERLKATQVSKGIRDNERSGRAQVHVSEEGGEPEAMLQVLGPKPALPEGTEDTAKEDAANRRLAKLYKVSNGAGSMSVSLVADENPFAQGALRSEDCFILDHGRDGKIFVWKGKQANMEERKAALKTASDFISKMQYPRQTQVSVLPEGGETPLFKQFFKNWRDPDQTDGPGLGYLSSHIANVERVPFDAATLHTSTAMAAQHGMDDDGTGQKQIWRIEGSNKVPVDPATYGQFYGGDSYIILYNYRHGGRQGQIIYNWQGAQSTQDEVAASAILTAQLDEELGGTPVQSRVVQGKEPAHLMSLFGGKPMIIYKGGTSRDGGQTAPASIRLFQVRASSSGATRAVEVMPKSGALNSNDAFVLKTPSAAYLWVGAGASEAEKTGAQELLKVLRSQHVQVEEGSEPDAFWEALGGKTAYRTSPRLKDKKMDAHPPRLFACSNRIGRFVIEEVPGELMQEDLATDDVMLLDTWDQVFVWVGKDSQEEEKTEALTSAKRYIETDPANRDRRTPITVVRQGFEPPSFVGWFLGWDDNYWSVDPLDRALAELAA

Tests used:
[1] = target: T1, KIF1C:mCherry (endogenous KIF1C tagged at the C terminus with mCherry) (mouse (endogenous in YUMM1.7)) (UniProt O35071); assay: co-IP; α-mCherry antibody, protein G Dynabeads, lysate of KIF1C:mCherry +/+ YUMM1.7 cells only (Kif1c mRNA properly localized), Western blot
T1 sequence: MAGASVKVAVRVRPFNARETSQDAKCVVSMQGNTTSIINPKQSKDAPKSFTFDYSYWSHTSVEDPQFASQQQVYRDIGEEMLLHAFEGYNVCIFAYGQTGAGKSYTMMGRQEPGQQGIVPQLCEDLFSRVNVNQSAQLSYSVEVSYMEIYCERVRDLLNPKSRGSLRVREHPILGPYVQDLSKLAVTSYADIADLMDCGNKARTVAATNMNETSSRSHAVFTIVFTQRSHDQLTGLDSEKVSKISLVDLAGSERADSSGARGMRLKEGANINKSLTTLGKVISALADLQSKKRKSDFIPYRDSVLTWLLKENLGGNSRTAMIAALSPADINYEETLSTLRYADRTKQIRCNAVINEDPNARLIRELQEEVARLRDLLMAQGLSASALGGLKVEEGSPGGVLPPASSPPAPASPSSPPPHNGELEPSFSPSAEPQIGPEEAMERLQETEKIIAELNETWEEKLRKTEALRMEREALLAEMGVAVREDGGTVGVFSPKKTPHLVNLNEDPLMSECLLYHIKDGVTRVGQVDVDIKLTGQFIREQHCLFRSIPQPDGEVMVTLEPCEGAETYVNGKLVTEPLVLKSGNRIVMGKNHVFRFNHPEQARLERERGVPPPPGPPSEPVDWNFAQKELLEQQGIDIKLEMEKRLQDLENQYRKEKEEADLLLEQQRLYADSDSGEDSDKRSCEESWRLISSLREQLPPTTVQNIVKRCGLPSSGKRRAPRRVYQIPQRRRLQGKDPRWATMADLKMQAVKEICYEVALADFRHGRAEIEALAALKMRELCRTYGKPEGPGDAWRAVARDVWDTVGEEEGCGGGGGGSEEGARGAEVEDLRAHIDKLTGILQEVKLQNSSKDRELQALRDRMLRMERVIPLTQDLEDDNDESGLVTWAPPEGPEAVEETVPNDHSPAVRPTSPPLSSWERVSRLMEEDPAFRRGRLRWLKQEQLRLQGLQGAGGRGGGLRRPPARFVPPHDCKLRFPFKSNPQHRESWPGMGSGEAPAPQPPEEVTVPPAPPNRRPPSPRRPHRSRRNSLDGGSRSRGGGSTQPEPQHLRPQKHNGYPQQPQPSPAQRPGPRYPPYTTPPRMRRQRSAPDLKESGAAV

[2] = target: T2, KIF1C (endogenous, untagged) (mouse (endogenous in YUMM1.7)) (UniProt O35071); assay: co-IP; α-KIF1C antibody, protein G Dynabeads, lysate of untagged Kif1c+/+ YUMM1.7 cells only (Kif1c mRNA properly localized), Western blot
T2 sequence: T1 sequence

[3] = target: T2, KIF1C (endogenous, untagged) (mouse (endogenous in YUMM1.7)); assay: co-IP; α-KIF1C antibody (2 μg), protein G Dynabeads, lysates of untagged Kif1c+/+ and Kif1c ΔGA1,2 YUMM1.7 cells (3-4 mg total protein), Western blot; washes 50 mM Tris pH 7.4, 150 mM NaCl, 0.02% NP-40
[4] = target: T1, KIF1C:mCherry (endogenous KIF1C tagged at the C terminus with mCherry) (mouse (endogenous in YUMM1.7)); assay: co-IP; α-mCherry antibody (10 μg, Invitrogen 16D7), protein G Dynabeads, lysates of KIF1C:mCherry-tagged YUMM1.7 cell lines (+/+ and ΔGA1,2), Western blot; washes 50 mM Tris pH 7.4, 150 mM NaCl, 0.02% NP-40

binding [1]: binds weakly | binding [2]: binds weakly | binding [3]: binds | binding [4]: binds
Substance: GSN (from UniProt P13020)
